From paper PMC10552901 come the findings set out here.

Sequences of proteins named here, by UniProt entry; tags and fusion partners are left off.
UniProt O14745: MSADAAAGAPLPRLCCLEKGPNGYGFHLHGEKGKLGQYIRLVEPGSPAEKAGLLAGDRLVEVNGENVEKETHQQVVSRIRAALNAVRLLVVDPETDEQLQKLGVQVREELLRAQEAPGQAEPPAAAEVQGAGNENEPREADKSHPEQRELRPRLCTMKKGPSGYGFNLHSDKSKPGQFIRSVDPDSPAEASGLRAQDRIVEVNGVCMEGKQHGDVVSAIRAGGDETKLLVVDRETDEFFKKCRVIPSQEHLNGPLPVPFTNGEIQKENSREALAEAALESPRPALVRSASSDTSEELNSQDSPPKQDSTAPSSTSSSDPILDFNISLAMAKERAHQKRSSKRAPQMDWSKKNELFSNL
UniProt P35579: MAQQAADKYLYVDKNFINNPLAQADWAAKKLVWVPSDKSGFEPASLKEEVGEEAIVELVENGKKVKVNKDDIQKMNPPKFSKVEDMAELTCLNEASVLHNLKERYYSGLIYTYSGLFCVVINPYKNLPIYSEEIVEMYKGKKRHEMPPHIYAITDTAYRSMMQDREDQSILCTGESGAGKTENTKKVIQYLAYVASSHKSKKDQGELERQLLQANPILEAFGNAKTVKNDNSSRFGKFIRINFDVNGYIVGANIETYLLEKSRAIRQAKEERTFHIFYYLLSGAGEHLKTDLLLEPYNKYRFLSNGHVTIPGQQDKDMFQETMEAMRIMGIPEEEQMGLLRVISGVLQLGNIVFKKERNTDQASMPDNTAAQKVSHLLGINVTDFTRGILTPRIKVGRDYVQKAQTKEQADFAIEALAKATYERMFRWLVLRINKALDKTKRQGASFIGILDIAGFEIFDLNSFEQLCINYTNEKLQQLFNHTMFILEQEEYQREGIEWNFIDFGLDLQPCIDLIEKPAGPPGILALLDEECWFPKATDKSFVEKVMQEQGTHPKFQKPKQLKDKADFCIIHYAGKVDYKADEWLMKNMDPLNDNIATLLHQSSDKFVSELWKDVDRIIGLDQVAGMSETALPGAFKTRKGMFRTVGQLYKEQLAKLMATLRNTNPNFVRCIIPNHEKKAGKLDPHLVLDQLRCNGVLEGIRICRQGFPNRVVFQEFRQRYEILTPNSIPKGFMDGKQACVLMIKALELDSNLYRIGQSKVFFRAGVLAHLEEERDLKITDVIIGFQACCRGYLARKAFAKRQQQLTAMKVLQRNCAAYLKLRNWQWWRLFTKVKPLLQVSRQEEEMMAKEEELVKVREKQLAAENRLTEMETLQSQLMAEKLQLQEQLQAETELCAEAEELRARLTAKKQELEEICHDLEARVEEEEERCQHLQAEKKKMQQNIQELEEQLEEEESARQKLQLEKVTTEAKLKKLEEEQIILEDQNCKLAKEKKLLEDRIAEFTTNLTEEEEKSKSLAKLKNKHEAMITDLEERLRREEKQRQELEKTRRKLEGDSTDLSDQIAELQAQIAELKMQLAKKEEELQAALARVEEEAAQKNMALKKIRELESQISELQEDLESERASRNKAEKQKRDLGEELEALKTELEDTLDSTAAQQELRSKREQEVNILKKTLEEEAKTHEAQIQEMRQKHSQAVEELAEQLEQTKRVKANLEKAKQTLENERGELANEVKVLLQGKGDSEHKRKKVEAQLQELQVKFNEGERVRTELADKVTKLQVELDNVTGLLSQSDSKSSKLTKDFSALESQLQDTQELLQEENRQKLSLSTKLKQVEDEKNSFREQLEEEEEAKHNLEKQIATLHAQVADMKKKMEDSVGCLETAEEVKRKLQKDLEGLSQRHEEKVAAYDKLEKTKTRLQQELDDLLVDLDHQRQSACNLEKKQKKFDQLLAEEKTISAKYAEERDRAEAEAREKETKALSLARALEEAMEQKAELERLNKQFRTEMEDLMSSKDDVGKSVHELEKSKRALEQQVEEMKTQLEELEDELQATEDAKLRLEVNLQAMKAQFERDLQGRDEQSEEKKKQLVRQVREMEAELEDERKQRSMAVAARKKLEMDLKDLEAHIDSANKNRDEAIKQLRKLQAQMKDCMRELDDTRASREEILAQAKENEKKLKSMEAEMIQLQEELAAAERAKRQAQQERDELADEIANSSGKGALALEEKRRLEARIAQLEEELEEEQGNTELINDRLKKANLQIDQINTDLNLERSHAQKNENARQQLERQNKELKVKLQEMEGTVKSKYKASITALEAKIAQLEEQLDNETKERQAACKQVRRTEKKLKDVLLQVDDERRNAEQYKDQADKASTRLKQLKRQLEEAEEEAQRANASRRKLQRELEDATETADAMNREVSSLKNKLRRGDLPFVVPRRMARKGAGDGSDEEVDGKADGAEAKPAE

These are yes or no findings as the source states them, for the method shown. In cells and extracts the contact can be indirect. These calls come from enrichment with a bait or labelling near it, and not all partners need be listed.

This experiment deals with Ezrin‐radixin‐moesin‐binding phosphoprotein 50 (EBP50) (human (endogenous in OVISE cells and OCCC tissue)) (UniProt O14745). The experiment can be described thus: affinity purification with mass spectrometry; co-immunoprecipitation with anti-EBP50 antibody crosslinked to Protein G Dynabeads from OVISE cell lysate (IP buffer: 10 mM Tris-HCl pH 7.5, 100 mM NaCl, 1% Nonidet P-40), shotgun proteomics with spectral counting.

Turning to “myosin 9 (MYH9) (from UniProt P35579 1-1960)”, the binding entry is “binds”.
